Measurements: US8895695B2 (priority 2003, dated 2014)

Assay: general procedure: Fmoc solid-phase peptide synthesis; Fmoc-ProO-chlorotritylresin, Fmoc-DProO-chlorotritylresin, Fmoc-S-(4-S-Alloc-amino)-ProO-chlorotritylresin
Conditions: whole synthesis, scale of the general procedure 60 mg resin per vessel

Arg-Arg-Cit-Cys-Arg-Gly-^DPro-Arg-Arg-2-Nal-Cys-Tyr-Gln-Lys-^DPro^LPro
final purity (method not given): 95%

Asp-Arg-Cit-Cys-Arg-Gly-^DPro-Arg-Arg-2-Nal-Cys-Tyr-Gln-Lys-^DPro^LPro
final purity (method not given): 95%

Gln-Arg-Cit-Cys-Arg-Gly-^DPro-Arg-Arg-2-Nal-Cys-Tyr-Gln-Lys-^DPro^LPro
final purity (method not given): 95%

Glu-Arg-Cit-Cys-Arg-Gly-^DPro-Arg-Arg-2-Nal-Cys-Tyr-Gln-Lys-^DPro^LPro
final purity (method not given): 95%

Gly-Arg-Cit-Cys-Arg-Gly-^DPro-Arg-Arg-2-Nal-Cys-Tyr-Cit-Lys-^DPro^LPro
final purity (method not given): 95%

His-Arg-Cit-Cys-Arg-Gly-^DPro-Arg-Arg-2-Nal-Cys-Tyr-Gln-Lys-^DPro^LPro
final purity (method not given): 95%

Ile-Arg-Cit-Cys-Arg-Gly-^DPro-Arg-Arg-2-Nal-Cys-Tyr-Gln-Lys-^DPro^LPro
final purity (method not given): 95%

Leu-Arg-Cit-Cys-Arg-Gly-^DPro-Arg-Arg-2-Nal-Cys-Tyr-Gln-Lys-^DPro^LPro
final purity (method not given): 87%

Met-Arg-Cit-Cys-Arg-Gly-^DPro-Arg-Arg-2-Nal-Cys-Tyr-Gln-Lys-^DPro^LPro
final purity (method not given): 95%

Phe-Arg-Cit-Cys-Arg-Gly-^DPro-Arg-Arg-Trp-Cys-Tyr-Cit-Lys-^DPro^LPro
final purity (method not given): 95%

Pip-Arg-Tyr-Cys-Tyr-Gln-Lys-^DPro-Pro-Tyr-Arg-Cit-Cys-Arg-Gly^DPro
final purity (method not given): 95%

Ser-Arg-Cit-Cys-Arg-Gly-^DPro-Arg-Arg-2-Nal-Cys-Tyr-Gln-Lys-^DPro^LPro
final purity (method not given): 95%

Thr-Arg-Cit-Cys-Arg-Gly-^DPro-Arg-Arg-2-Nal-Cys-Tyr-Gln-Lys-^DPro^LPro
final purity (method not given): 95%

Trp-Arg-Cit-Cys-Arg-Gly-^DPro-Arg-Arg-2-Nal-Cys-Tyr-Gln-Lys-^DPro^LPro
final purity (method not given): 95%

Tyr-4-PyrAla-Thr-Cys-Arg-Gly-^DPro-Arg-Arg-Trp-Cys-Tyr-Gln-Lys-^DPro^LPro
final purity (method not given): 90%

Tyr-Arg-4F-Phe-Cys-Arg-Gly-^DPro-Arg-Arg-2-Nal-Cys-Tyr-Gln-Lys-^DPro^LPro
final purity (method not given): 95%

Tyr-Arg-Ala-Cys-Arg-Gly-^DPro-Arg-Arg-2-Nal-Cys-Tyr-Gln-Lys-^DPro^LPro
final purity (method not given): 95%

Tyr-Arg-Arg-Cys-Arg-Gly-^DPro-Arg-Arg-2-Nal-Cys-Tyr-Gln-Lys-^DPro^LPro
final purity (method not given): 95%

Tyr-Arg-Asn-Cys-Arg-Gly-^DPro-Arg-Arg-2-Nal-Cys-Tyr-Gln-Lys-^DPro^LPro
final purity (method not given): 95%

Tyr-Arg-Asp-Cys-Arg-Gly-^DPro-Arg-Arg-2-Nal-Cys-Tyr-Gln-Lys-^DPro^LPro
final purity (method not given): 95%

Tyr-Arg-Cit-Cys-(EA)G-Gly-^DPro-Arg-Arg-2-Nal-Cys-Tyr-Cit-Lys-^DPro^LPro
final purity (method not given): 76%

Tyr-Arg-Cit-Cys-Arg-Ala-^DPro-Arg-Arg-Trp-Cys-Tyr-Cit-Lys-^DPro^LPro
final purity (method not given): 95%

Tyr-Arg-Cit-Cys-Arg-Gly-Gly-Arg-Arg-2-Nal-Cys-Tyr-Cit-Lys-^DPro^LPro
final purity (method not given): 100%

Tyr-Arg-Cit-Cys-Arg-Gly-Pro-Arg-(EA)G-2-Nal-Cys-Tyr-Cit-Lys-^DPro^LPro
final purity (method not given): 90%

Tyr-Arg-Cit-Cys-Arg-Gly-^DPro-4F-Phe-Arg-2-Nal-Cys-Tyr-Gln-Lys-^DPro^LPro
final purity (method not given): 95%

Tyr-Arg-Cit-Cys-Arg-Gly-^DPro-4F-Phe-Arg-Trp-Cys-Tyr-Cit-Lys-^DPro^LPro
final purity (method not given): 95%

Tyr-Arg-Cit-Cys-Arg-Gly-^DPro-(Im)G-Arg-2-Nal-Cys-Tyr-Cit-Lys-^DPro^LPro
final purity (method not given): 95%

Tyr-Arg-Cit-Cys-Arg-Gly-^DPro-Arg-(Pip)G-2-Nal-Cys-Tyr-Cit-Lys-^DPro^LPro
final purity (method not given): 95%

Tyr-Arg-Cit-Cys-Arg-Gly-^DPro-Arg-Arg-2-Nal-Cys-Tyr-Ala-Lys-^DPro^LPro
final purity (method not given): 95%

Tyr-Arg-Cit-Cys-Arg-Gly-^DPro-Arg-Arg-2-Nal-Cys-Tyr-Arg-Lys-^DPro^LPro
final purity (method not given): 95%

Tyr-Arg-Cit-Cys-Arg-Gly-^DPro-Arg-Arg-2-Nal-Cys-Tyr-Asn-Lys-^DPro^LPro
final purity (method not given): 95%

Tyr-Arg-Cit-Cys-Arg-Gly-^DPro-Arg-Arg-2-Nal-Cys-Tyr-Asp-Lys-^DPro^LPro
final purity (method not given): 95%

Tyr-Arg-Cit-Cys-Arg-Gly-^DPro-Arg-Arg-2-Nal-Cys-Tyr-Cit-Glu-^DPro^LPro
final purity (method not given): 95%

Tyr-Arg-Cit-Cys-Arg-Gly-^DPro-Arg-Arg-2-Nal-Cys-Tyr-Cit-NMeK-^DPro^LPro
final purity (method not given): 85%

Tyr-Arg-Cit-Cys-Arg-Gly-^DPro-Arg-Arg-2-Nal-Cys-Tyr-Gln-Ala-^DPro^LPro
final purity (method not given): 95%

Tyr-Arg-Cit-Cys-Arg-Gly-^DPro-Arg-Arg-2-Nal-Cys-Tyr-Gln-Asn-^DPro^LPro
final purity (method not given): 95%

Tyr-Arg-Cit-Cys-Arg-Gly-^DPro-Arg-Arg-2-Nal-Cys-Tyr-Gln-Asp-^DPro^LPro
final purity (method not given): 95%

Tyr-Arg-Cit-Cys-Arg-Gly-^DPro-Arg-Arg-2-Nal-Cys-Tyr-Gln-Gln-^DPro^LPro
final purity (method not given): 95%

Tyr-Arg-Cit-Cys-Arg-Gly-^DPro-Arg-Arg-2-Nal-Cys-Tyr-Gln-Glu-^DPro^LPro
final purity (method not given): 95%

Tyr-Arg-Cit-Cys-Arg-Gly-^DPro-Arg-Arg-2-Nal-Cys-Tyr-Gln-Lys-^DPro^LPro [115]
final purity (method not given): 95%

Tyr-Arg-Cit-Cys-Arg-Gly-^DPro-Arg-Arg-2-Nal-Cys-Tyr-Gln-Ser-^DPro^LPro
final purity (method not given): 95%

Tyr-Arg-Cit-Cys-Arg-Gly-^DPro-Arg-Arg-2-Nal-Cys-Tyr-His-Lys-^DPro^LPro
final purity (method not given): 95%

Tyr-Arg-Cit-Cys-Arg-Gly-^DPro-Arg-Arg-2-Nal-Cys-Tyr-Leu-Lys-^DPro^LPro
final purity (method not given): 95%

Tyr-Arg-Cit-Cys-Arg-Gly-^DPro-Arg-Arg-2-Nal-Cys-Tyr-Lys-Lys-^DPro^LPro
final purity (method not given): 95%

Tyr-Arg-Cit-Cys-Arg-Gly-^DPro-Arg-Arg-2-Nal-Cys-Tyr-Met-Lys-^DPro^LPro
final purity (method not given): 95%

Tyr-Arg-Cit-Cys-Arg-Gly-^DPro-Arg-Arg-2-Nal-Cys-Tyr-NMeGly-Lys-^DPro^LPro
final purity (method not given): 89%

Tyr-Arg-Cit-Cys-Arg-Gly-^DPro-Arg-Arg-2-Nal-Cys-Tyr-Ser-Lys-^DPro^LPro
final purity (method not given): 95%

Tyr-Arg-Cit-Cys-Arg-Gly-^DPro-Arg-Arg-2-Nal-Cys-Tyr-Thr-Lys-^DPro^LPro
final purity (method not given) (run 1): 90%

Tyr-Arg-Cit-Cys-Arg-Gly-^DPro-Arg-Arg-2-Nal-Cys-Tyr-Thr-Lys-^DPro^LPro [132]
final purity (method not given) (run 1): 89%

Tyr-Arg-Cit-Cys-Arg-Gly-^DPro-Arg-Arg-2-Nal-Cys-Tyr-Tyr-Lys-^DPro^LPro
final purity (method not given): 95%

Tyr-Arg-Cit-Cys-Arg-Gly-^DPro-Arg-Arg-Trp-Cys-Tyr-Cit-Gln-^DPro^LPro
final purity (method not given): 95%

Tyr-Arg-Cit-Cys-Arg-Gly-^DPro-Arg-Arg-Trp-Cys-Tyr-Cit-Lys-^DProA8″-42
final purity (method not given): 68%

Tyr-Arg-Cit-Cys-Arg-Gly-^DPro-Arg-Arg-Trp-Cys-Tyr-Gln-Lys-^DPro^LPro
final purity (method not given): 95%

Tyr-Arg-Cit-Cys-Arg-Gly-^DPro-Arg-Arg-Tyr-Cys-Cit-Tyr-Lys-^DPro^LPro
final purity (method not given): 83%

Tyr-Arg-Cit-Cys-Arg-Gly-^DPro-Arg-Arg-Tyr-Cys-Tyr-Cit-Lys-^DPro^LPro
final purity (method not given): 95%

Tyr-Arg-Cit-Cys-Arg-Gly-^DPro-Arg-Arg-Tyr-Cys-Tyr-Gln-Lys-^DGln^LPro
final purity (method not given): 91%

Tyr-Arg-Cit-Cys-Arg-Gly-^DPro-Arg-Orn-Trp-Cys-Tyr-Cit-Lys-^DPro^LPro
final purity (method not given): 90%

Tyr-Arg-Cit-Cys-Arg-Gly-^DPro-Cit-Arg-Trp-Cys-Tyr-Cit-Lys-^DPro^LPro
final purity (method not given): 95%

Tyr-Arg-Cit-Cys-Arg-Gly-^DPro-Dab-Arg-Trp-Cys-Tyr-Gln-Lys-^DPro^LPro
final purity (method not given): 95%

Tyr-Arg-Cit-Cys-Arg-Gly-^DPro-His-Arg-Trp-Cys-Tyr-Cit-Lys-^DPro^LPro
final purity (method not given): 95%

Tyr-Arg-Cit-Cys-Arg-Gly-^DPro-IPegDab-Arg-Trp-Cys-Tyr-Cit-Lys-^DPro^LPro
final purity (method not given): 95%

Tyr-Arg-Cit-Cys-Arg-Gly-^DPro-IsOrn-Arg-2-Nal-Cys-Tyr-Cit-Lys-^DPro^LPro
final purity (method not given): 95%

Tyr-Arg-Cit-Cys-Arg-Gly-^DPro-Thr-Arg-2-Nal-Cys-Tyr-Gln-Lys-^DPro^LPro
final purity (method not given): 95%

Tyr-Arg-Cit-Cys-Arg-Gly-^DPro-Trp-Arg-2-Nal-Cys-Tyr-Gln-Lys-^DPro^LPro
final purity (method not given): 95%
